The values below come from paper PMC8660800.

Amino acid sequences for entries named in this document (tags omitted).
UniProt P47756: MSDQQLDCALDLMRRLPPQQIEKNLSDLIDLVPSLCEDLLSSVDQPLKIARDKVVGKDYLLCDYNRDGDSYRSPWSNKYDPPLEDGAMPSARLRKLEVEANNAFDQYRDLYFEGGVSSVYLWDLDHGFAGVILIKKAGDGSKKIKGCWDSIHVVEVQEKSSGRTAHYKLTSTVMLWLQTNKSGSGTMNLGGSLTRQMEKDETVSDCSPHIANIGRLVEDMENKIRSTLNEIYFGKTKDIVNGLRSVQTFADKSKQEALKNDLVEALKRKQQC
UniProt O75175: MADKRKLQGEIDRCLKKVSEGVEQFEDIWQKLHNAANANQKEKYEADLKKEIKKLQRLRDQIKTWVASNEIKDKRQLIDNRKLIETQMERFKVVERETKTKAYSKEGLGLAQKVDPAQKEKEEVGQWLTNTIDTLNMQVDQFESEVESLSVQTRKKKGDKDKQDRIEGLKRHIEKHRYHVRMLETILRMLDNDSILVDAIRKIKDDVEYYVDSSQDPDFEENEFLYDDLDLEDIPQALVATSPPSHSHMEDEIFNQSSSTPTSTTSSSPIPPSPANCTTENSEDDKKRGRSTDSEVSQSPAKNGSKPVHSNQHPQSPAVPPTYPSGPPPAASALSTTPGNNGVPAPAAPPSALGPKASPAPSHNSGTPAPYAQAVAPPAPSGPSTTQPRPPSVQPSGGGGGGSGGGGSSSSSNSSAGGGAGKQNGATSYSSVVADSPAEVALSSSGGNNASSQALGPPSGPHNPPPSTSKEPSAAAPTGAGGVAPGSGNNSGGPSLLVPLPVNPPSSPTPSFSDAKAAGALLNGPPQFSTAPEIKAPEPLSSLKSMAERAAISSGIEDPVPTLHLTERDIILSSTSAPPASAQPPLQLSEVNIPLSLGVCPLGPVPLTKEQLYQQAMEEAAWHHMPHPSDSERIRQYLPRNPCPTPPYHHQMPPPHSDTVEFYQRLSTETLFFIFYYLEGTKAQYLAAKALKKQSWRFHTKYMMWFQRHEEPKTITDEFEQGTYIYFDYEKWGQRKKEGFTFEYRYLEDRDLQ
UniProt Q9UFF9: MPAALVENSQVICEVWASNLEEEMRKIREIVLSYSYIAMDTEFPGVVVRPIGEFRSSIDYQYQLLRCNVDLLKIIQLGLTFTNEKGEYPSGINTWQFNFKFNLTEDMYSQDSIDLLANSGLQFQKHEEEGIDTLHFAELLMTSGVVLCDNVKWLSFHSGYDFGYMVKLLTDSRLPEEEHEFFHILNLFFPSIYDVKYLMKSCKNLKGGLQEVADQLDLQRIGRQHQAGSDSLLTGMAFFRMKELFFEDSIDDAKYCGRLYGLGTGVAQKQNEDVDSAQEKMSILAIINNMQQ
UniProt Q9NZN8: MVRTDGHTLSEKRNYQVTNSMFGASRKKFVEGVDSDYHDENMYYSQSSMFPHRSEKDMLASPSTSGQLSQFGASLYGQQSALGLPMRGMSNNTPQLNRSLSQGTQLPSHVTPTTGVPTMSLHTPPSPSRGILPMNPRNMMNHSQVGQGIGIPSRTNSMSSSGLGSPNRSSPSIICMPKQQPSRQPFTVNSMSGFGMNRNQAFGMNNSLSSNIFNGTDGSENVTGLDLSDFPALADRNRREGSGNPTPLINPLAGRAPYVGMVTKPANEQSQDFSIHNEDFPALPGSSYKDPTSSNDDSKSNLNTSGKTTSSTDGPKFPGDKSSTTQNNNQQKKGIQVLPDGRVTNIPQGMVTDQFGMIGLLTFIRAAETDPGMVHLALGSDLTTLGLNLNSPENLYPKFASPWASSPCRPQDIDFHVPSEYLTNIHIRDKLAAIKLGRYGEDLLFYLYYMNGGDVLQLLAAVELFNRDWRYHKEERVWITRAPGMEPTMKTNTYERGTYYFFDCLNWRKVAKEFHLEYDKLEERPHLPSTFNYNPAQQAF
UniProt Q9C0C2: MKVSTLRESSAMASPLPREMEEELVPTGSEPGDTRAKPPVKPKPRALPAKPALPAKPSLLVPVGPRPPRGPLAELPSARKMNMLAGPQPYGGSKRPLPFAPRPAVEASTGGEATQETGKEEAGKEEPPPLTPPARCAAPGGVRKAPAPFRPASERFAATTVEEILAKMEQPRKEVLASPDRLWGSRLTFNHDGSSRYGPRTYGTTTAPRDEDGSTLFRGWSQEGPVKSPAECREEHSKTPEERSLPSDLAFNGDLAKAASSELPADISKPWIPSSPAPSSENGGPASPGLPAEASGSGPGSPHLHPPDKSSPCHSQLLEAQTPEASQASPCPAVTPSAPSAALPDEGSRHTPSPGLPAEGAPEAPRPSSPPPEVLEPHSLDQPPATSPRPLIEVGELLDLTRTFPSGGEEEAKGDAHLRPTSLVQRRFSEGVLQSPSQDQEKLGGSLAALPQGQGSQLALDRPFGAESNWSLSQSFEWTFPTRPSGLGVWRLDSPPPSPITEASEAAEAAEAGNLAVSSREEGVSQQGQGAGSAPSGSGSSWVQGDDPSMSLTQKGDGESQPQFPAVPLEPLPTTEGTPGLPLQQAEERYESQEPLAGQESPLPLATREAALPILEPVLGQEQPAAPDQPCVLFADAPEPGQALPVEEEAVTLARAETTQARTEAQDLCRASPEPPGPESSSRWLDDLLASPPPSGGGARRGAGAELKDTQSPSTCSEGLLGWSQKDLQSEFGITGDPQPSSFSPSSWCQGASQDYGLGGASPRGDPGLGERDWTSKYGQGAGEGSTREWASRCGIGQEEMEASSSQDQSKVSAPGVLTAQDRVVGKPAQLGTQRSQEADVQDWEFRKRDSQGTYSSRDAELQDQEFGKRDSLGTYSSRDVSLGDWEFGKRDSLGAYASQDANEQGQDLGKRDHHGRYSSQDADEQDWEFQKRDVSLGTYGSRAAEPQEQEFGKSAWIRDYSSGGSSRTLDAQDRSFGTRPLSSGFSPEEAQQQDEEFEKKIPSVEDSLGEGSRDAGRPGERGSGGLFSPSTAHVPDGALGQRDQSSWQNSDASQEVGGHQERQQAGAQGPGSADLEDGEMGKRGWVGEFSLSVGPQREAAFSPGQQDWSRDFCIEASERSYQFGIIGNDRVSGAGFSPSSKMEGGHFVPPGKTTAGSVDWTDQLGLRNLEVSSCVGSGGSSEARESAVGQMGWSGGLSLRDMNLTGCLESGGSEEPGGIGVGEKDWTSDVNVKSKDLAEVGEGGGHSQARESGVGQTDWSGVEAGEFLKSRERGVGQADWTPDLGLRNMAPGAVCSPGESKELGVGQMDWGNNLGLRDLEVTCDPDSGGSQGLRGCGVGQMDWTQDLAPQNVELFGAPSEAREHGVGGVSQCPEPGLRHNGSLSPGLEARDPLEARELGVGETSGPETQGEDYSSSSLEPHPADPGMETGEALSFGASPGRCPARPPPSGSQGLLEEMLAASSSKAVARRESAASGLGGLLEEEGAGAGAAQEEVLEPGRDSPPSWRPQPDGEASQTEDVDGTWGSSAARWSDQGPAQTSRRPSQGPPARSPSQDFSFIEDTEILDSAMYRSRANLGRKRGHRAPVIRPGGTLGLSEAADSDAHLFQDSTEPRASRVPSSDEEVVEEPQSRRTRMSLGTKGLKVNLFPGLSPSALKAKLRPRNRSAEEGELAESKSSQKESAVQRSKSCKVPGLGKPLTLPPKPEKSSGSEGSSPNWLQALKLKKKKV

B1: four and a half LIM domains protein 2 (FHL2), endogenous (protein, UniProt Q14192 1-279)
chain: MTERFDCHHCNESLFGKKYILREESPYCVVCFETLFANTCEECGKPIGCDCKDLSYKDRHWHEACFHCSQCRNSLVDKPFAAKEDQLLCTDCYSNEYSSKCQECKKTIMPGTRKMEYKGSSWHETCFICHRCQQPIGTKSFIPKDNQNFCVPCYEKQHAMQCVQCKKPITTGGVTYREQPWHKECFVCTACRKQLSGQRFTARDDFAYCLNCFCDLYAKKCAGCTNPISGLGGTKYISFEERQWHNDCFNCKKCSLSLVGRGFLTERDDILCPDCGKDI

These are yes or no findings as the source states them, for the method shown. Binding seen in cells or lysates may run through a third protein. Here binding means that the protein was enriched with, or labelled near, the bait; the list need not be complete.

The target in this assay is FST-NOT1 (endogenous NOT1 with an N-terminal 3xFLAG-2xStrep tag) (human (endogenous in HeLa)) (UniProt A5YKK6). Briefly: affinity purification with mass spectrometry; FLAG IP (anti-FLAG M2 magnetic beads) of endogenously tagged FST-NOT1 from HeLa clone #47 lysate, parental HeLa as negative control; 20 mM Tris-HCl pH 7.5, 150 mM NaCl, 0.05-0.1% NP-40, 4 °C; eluted with 3xFLAG peptide; label-free (n = 4) and SILAC with 20 nM RMD or DMSO for 16 h.
As for “CAPZB, endogenous (from UniProt P47756 1-272)”, the binding result is recorded as “binds”. With “CNOT3, endogenous (from UniProt O75175 1-753)”, the binding entry is “binds”.

In the case of “CNOT8, endogenous (from UniProt Q9UFF9 1-292)”, the binding entry is “binds”. For “NOT2, endogenous (from UniProt Q9NZN8 1-540)”, the binding entry is “binds”. In the case of “TNKS1BP1, endogenous (from UniProt Q9C0C2 1-1729)”, the binding result is reported as “binds”. As to B1, the binding entry is given as “binds”.
